In publication doi:10.1101/2024.07.29.605519 one finds binding data, which are given here for one substance.

Amino acid sequences for entries named in this document (tags omitted).
UniProt Q39026: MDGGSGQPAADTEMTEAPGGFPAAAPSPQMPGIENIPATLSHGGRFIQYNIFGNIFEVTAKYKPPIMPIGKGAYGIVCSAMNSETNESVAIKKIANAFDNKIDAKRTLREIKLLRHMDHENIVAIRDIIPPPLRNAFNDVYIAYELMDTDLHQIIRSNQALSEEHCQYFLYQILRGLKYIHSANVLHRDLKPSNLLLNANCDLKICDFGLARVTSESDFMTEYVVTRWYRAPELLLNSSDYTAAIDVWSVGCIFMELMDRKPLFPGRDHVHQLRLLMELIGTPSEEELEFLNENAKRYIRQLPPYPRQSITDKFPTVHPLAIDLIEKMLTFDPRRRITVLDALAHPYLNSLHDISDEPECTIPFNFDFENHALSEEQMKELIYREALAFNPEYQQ

For this test, the target named is T1, SCRM-nYFP (Arabidopsis) (UniProt Q9LSE2).
T1 sequence: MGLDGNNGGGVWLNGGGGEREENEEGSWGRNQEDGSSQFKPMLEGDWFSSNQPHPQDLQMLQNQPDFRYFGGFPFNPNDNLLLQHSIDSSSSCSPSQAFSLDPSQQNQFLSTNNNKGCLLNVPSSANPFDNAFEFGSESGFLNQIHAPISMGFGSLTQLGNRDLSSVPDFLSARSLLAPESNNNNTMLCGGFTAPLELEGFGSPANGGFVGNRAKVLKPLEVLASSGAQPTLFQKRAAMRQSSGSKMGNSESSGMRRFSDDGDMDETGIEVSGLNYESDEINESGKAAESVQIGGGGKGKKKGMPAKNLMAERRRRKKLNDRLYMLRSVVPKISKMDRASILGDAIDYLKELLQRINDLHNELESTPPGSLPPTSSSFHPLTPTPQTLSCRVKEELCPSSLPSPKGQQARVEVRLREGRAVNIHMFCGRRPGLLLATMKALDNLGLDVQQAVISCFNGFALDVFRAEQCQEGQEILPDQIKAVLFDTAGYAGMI
Description: split reporter; ratiometric BiFC (2in1 system, pBiFCt-2in1-CC) in N. benthamiana leaf epidermis; nYFP and cYFP fusions and 35S::RFP on one plasmid; YFP/RFP ratio in nuclei; mock or 100 μM kC9 for two days.

Results are given in words; binding and its absence hold for the method and conditions named. In cells and extracts the contact can be indirect. Some entries that bind do so weakly or less than the wild type. Where a sequence is shown, tags or fusion partners need not be part of it.

Take MPK6-cYFP (from UniProt Q39026 1-395): the binding entry was “binds”.
